# The other results are listed elsewhere or left out.
# B1: PX14343F-bfa-562-20-562 (Bacteroides fragilis) (protein)
# chain: CDDFLDSFPQDTVTNENFWKSKEDADKVLVDIYASLLPKDAIFFDEAMSDNAYLVWDWWGGAQQVANGSYTTSGEIPTNRWNGSYEVIRKCWFLLEGIEKIEDISEQDKNKIIGETYFMLAYNYYVLTSYFGDVPLVTKTLAIPESKQLVRTPKAEVVDYAINKLKEAAVMLEGLSQEKGRVTADACRFLIARMYLYNGDYSNVLETVKLLEGKYQLYREGDTPYEDLFSGVAENSCEVILSVVCDKRVGEIYTSHGGNGIMLLKGITGEDPYRGVTPSGSLVDAYPMADGRLIHEAGSSYDPKKPYEGRDPRFYQSIVYPTGQIKYLDVETGTVKERLYDPEDPTTVPEHQYNYSQPSATGYMWNKYIDYSVYAMNSVWDCTNDIIVFRYADVLLMKAEALLQTKGESAKEEVCNLIDQLRDRCSCGRVHRENYNSKDELMELLKNERRIELANEGLRYMDLIRWKDAEKNTIVTGVGLTGQMYGAYMRKDGVGKDDKTVDVDNTPRRYIETRYFNASKGYLFPIPQKERDLNPNLTQNPNW
# Legend:
# Test in all cases: glycan array binding signal (z-score within array); higher = stronger binding
# Details in all cases: glycan notation: IUPAC condensed, linker removed
# [1] = target: Neu5Ac(a2-3)Gal(b1-3)[Fuc(a1-4)]GlcNAc
# Summary of the method: (§1)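 Columns mapping to the same glycan were averaged after glycan names were converted to IUPAC-condensed notation. The data come from 3228 arrays in the Consortium for Functional Glycomics database, limited to those with an available protein sequence. Binding is reported as a within-array Z-score averaged across arrays of one protein sequence and across linkers.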
# [2] = target: Neu5Ac(a2-3)Gal(b1-3)[Fuc(a1-4)]GlcNAc(b1-3)Gal(b1-3)[Fuc(a1-4)]GlcNAc
# Summary of the method: as §1
# [3] = target: Neu5Ac(a2-3)Gal(b1-3)[Fuc(a1-4)]GlcNAc(b1-3)Gal(b1-4)[Fuc(a1-3)]GlcNAc
# Summary of the method: as §1
# [4] = target: Neu5Ac(a2-3)Gal(b1-3)[GlcNAc(b1-6)]GalNAc
# Summary of the method: as §1
# [5] = target: Neu5Ac(a2-3)Gal(b1-3)[Neu5Ac(a2-6)]GalNAc
# Summary of the method: as §1
# [6] = target: Neu5Ac(a2-3)Gal(b1-3)[Neu5Ac(a2-6)]GlcNAc(b1-3)[Fuc(a1-3)[Gal(b1-4)]GlcNAc(b1-6)]Gal(b1-4)Glc
# Summary of the method: as §1
# [7] = target: Neu5Ac(a2-3)Gal(b1-3)]Neu5Ac(a2-3)Gal(b1-4)]GlcNAc
# Summary of the method: as §1
# Neu5Ac(a2-3)Gal(b1-4)Glc = target: Neu5Ac(a2-3)Gal(b1-4)Glc
# Summary of the method: as §1
# [8] = target: Neu5Ac(a2-3)Gal(b1-4)GlcNAc
# Summary of the method: as §1
# [9] = target: Neu5Ac(a2-3)Gal(b1-4)GlcNAc(b1-2)Man
# Summary of the method: as §1
# [10] = target: Neu5Ac(a2-3)Gal(b1-4)GlcNAc(b1-2)Man(a1-3)[GlcNAc(b1-4)][Neu5Ac(a2-3)Gal(b1-4)GlcNAc(b1-2)Man(a1-6)]Man(b1-4)GlcNAc(b1-4)GlcNAc
# Summary of the method: as §1
# [11] = target: Neu5Ac(a2-3)Gal(b1-4)GlcNAc(b1-2)Man(a1-3)[Neu5Ac(a2-3)Gal(b1-4)GlcNAc(b1-2)Man(a1-6)]Man(b1-4)GlcNAc(b1-4)GlcNAc
# Summary of the method: as §1
# [12] = target: Neu5Ac(a2-3)Gal(b1-4)GlcNAc(b1-2)Man(a1-3)[Neu5Ac(a2-3)Gal(b1-4)GlcNAc(b1-2)Man(a1-6)]Man(b1-4)GlcNAc(b1-4)[Fuc(a1-6)]GlcNAc
# Summary of the method: as §1
# [13] = target: Neu5Ac(a2-3)Gal(b1-4)GlcNAc(b1-2)Man(a1-3)[Neu5Ac(a2-6)Gal(b1-4)GlcNAc(b1-2)Man(a1-6)]Man(b1-4)GlcNAc(b1-4)GlcNAc
# Summary of the method: as §1
# [14] = target: Neu5Ac(a2-3)Gal(b1-4)GlcNAc(b1-2)[Neu5Ac(a2-3)Gal(b1-4)GlcNAc(b1-4)]Man(a1-3)[GlcNAc(b1-4)][Neu5Ac(a2-3)Gal(b1-4)GlcNAc(b1-2)[Neu5Ac(a2-3)Gal(b1-4)GlcNAc(b1-6)]Man(a1-6)]Man(b1-4)GlcNAc(b1-4)GlcNAc
# Summary of the method: as §1
# [15] = target: Neu5Ac(a2-3)Gal(b1-4)GlcNAc(b1-2)[Neu5Ac(a2-3)Gal(b1-4)GlcNAc(b1-4)]Man(a1-3)[GlcNAc(b1-4)][Neu5Ac(a2-3)Gal(b1-4)GlcNAc(b1-4)Man(a1-6)]Man(b1-4)GlcNAc(b1-4)GlcNAc
# Summary of the method: as §1
# [16] = target: Neu5Ac(a2-3)Gal(b1-4)GlcNAc(b1-2)[Neu5Ac(a2-3)Gal(b1-4)GlcNAc(b1-6)]Man(a1-6)[Neu5Ac(a2-3)Gal(b1-4)GlcNAc(b1-2)Man(a1-3)]Man(b1-4)GlcNAc(b1-4)GlcNAc
# Summary of the method: as §1
# [17] = target: Neu5Ac(a2-3)Gal(b1-4)GlcNAc(b1-2)[Neu5Ac(a2-3)Gal(b1-4)GlcNAc(b1-6)]Man(a1-6)[Neu5Ac(a2-3)Gal(b1-4)GlcNAc(b1-2)Man(a1-3)][GlcNAc(b1-4)]Man(b1-4)GlcNAc(b1-4)GlcNAc
# Summary of the method: as §1
# [18] = target: Neu5Ac(a2-3)Gal(b1-4)GlcNAc(b1-3)Gal
# Summary of the method: as §1
# [19] = target: Neu5Ac(a2-3)Gal(b1-4)GlcNAc(b1-3)Gal(b1-3)GlcNAc
# Summary of the method: as §1
# [20] = target: Neu5Ac(a2-3)Gal(b1-4)GlcNAc(b1-3)Gal(b1-4)GlcNAc
# Summary of the method: as §1
# [21] = target: Neu5Ac(a2-3)Gal(b1-4)GlcNAc(b1-3)Gal(b1-4)GlcNAc(b1-2)Man(a1-3)[Neu5Ac(a2-3)Gal(b1-4)GlcNAc(b1-3)Gal(b1-4)GlcNAc(b1-2)Man(a1-6)]Man(b1-4)GlcNAc(b1-4)GlcNAc
# Summary of the method: as §1
# [22] = target: Neu5Ac(a2-3)Gal(b1-4)GlcNAc(b1-3)Gal(b1-4)GlcNAc(b1-3)Gal(b1-4)GlcNAc
# Summary of the method: as §1
# [23] = target: Neu5Ac(a2-3)Gal(b1-4)GlcNAc(b1-3)Gal(b1-4)GlcNAc(b1-3)Gal(b1-4)GlcNAc(b1-2)Man(a1-3)[Neu5Ac(a2-3)Gal(b1-4)GlcNAc(b1-3)Gal(b1-4)GlcNAc(b1-3)Gal(b1-4)GlcNAc(b1-2)Man(a1-6)]GalNAc
# Summary of the method: as §1
# [24] = target: Neu5Ac(a2-3)Gal(b1-4)GlcNAc(b1-3)Gal(b1-4)GlcNAc(b1-3)GalNAc
# Summary of the method: as §1
# [25] = target: Neu5Ac(a2-3)Gal(b1-4)GlcNAc(b1-3)Gal(b1-4)GlcNAc(b1-3)[Neu5Ac(a2-3)Gal(b1-4)GlcNAc(b1-3)Gal(b1-4)GlcNAc(b1-6)]GalNAc
# Summary of the method: as §1
# [26] = target: Neu5Ac(a2-3)Gal(b1-4)GlcNAc(b1-3)Gal(b1-4)GlcNAc(b1-6)[Gal(b1-3)]GalNAc
# Summary of the method: as §1
# [27] = target: Neu5Ac(a2-3)Gal(b1-4)GlcNAc(b1-3)Gal(b1-4)[Fuc(a1-3)]GlcNAc
# Summary of the method: as §1
# [28] = target: Neu5Ac(a2-3)Gal(b1-4)GlcNAc(b1-3)GalNAc
# Summary of the method: as §1
# [29] = target: Neu5Ac(a2-3)Gal(b1-4)GlcNAc(b1-3)[Neu5Ac(a2-3)Gal(b1-4)GlcNAc(b1-6)]GalNAc
# Summary of the method: as §1
binder,measurement,setting,value
B1,glycan array binding signal (z-score),[1],-0.87
same,glycan array binding signal (z-score),[2],-0.121
same,glycan array binding signal (z-score),[3],0.048
same,glycan array binding signal (z-score),[4],-0.515
same,glycan array binding signal (z-score),[5],-0.574
same,glycan array binding signal (z-score),[6],-0.957
same,glycan array binding signal (z-score),[7],-0.4
same,glycan array binding signal (z-score),Neu5Ac(a2-3)Gal(b1-4)Glc,-0.605
same,glycan array binding signal (z-score),[8],-0.665
same,glycan array binding signal (z-score),[9],1.07
same,glycan array binding signal (z-score),[10],0.338
same,glycan array binding signal (z-score),[11],-0.132
same,glycan array binding signal (z-score),[12],1.29
same,glycan array binding signal (z-score),[13],0.404
same,glycan array binding signal (z-score),[14],-0.511
same,glycan array binding signal (z-score),[15],-0.105
same,glycan array binding signal (z-score),[16],0.73
same,glycan array binding signal (z-score),[17],-0.512
same,glycan array binding signal (z-score),[18],-0.842
same,glycan array binding signal (z-score),[19],0.659
same,glycan array binding signal (z-score),[20],0.486
same,glycan array binding signal (z-score),[21],-0.019
same,glycan array binding signal (z-score),[22],0.314
same,glycan array binding signal (z-score),[23],1.17
same,glycan array binding signal (z-score),[24],-0.095
same,glycan array binding signal (z-score),[25],1.61
same,glycan array binding signal (z-score),[26],-0.22
same,glycan array binding signal (z-score),[27],-0.419
same,glycan array binding signal (z-score),[28],0.102
same,glycan array binding signal (z-score),[29],-0.067

# Reformatted tab-delimited: entries from further up
binder	measurement	setting	value
B1	glycan array binding signal (z-score)	[12]	1.29
same	glycan array binding signal (z-score)	[13]	0.404

# Reference: the supplement of paper PMC8728848
